# Experimental data as given in PubChem BioAssay AID2685 (National Center for Advancing Translational Sciences (NCATS), 2010).
# The list shows a part of the results. Further columns of the screen follow, without active or inactive calls. Compounds called inactive in the main read-out are mostly missing here. Potencies come from curve fits of mixed quality, noted in brackets.
# Experiment: qHTS Assay for Lipid Storage Modulators in Drosophila S3 Cells;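 for cell number change: cells counted by Cell Tracker Red CMTPX staining in the red channel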
# Settings: BODIPY lipid droplet fluorescence, 18-24 h; for cell number change: measured here: cell count max response, cells fed with added oleic acid
# Method in brief: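 Drosophila S3 cells loaded with oleic acid (400 uM, as added) and compounds at several concentrations; lipid droplets imaged by 488-nm laser-scanning cytometry, 500–530 nm intensity and object ratio to cell channel. Percent activity normalized to 20 uM Triacsin C.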
# [1] = measured here: cell number channel AC50, cells fed with added oleic acid
# [2] = measured here: lipid fluorescence (Fed channel) AC50, cells fed with added oleic acid
Structure (SMILES),cell number change,AC50 [1],AC50 [2]
O=C(CC12CC3CC(CC(C3)C1)C2)NCC(c1ccc(F)cc1)N1CCOCC1 (stereo not given),-34.1%,"7.31 µM [falling, partial curve, poor fit]",–
Cc1ccc(O)c(/C=N/NC(=O)Cc2ccc(Cl)cc2)c1,32.4%,–,"0.146 µM [rising, full curve, poor fit]"
O=C1c2ccccc2C(=O)N1CCCCn1c(=O)oc2ccccc21,-23.1%,–,"16.4 µM [rising, single point]"
O=C(Nc1ccc2c3c(cccc13)CC2)c1cccc([N+](=O)[O-])c1,-5.12%,–,"0.00411 µM [rising, full curve, poor fit]"
CCOc1ccccc1C(=O)Nc1nnc(C(C)C)s1,14.4%,"7.31 µM [rising, single point]","3.66 µM [rising, full curve, poor fit]"
c1cc[n+](CCCC[n+]2ccccc2)cc1,–,"0.00461 µM [falling, full curve, poor fit]",–
CC(=O)c1ccc(OCc2cc(C(=O)N3CCN4CCCC4C3)no2)cc1 (stereo not given),7.29%,–,"11.2 µM [rising, partial curve]"
COc1ccccc1CNC(=O)COC(=O)c1cccc(-n2cnnn2)c1,–,–,"2.91 µM [falling, single point]"
O=C(Nc1nc(-c2ccccn2)cs1)c1cc(Cl)ccc1[N+](=O)[O-],–,"0.00461 µM [rising, full curve, poor fit]","0.731 µM [rising, full curve, poor fit]"
Cc1ccc(N2C(=O)CS(=O)C(c3ccccc3)C2=O)cc1C (stereo not given),-24%,–,"29.1 µM [falling, single point]"
CCOc1cc(-c2noc(CCC(=O)Nc3cccnc3)n2)ccc1OC,38.4%,"7.31 µM [rising, partial curve, poor fit]",–
CC(=O)N1CCc2c(sc(NC(=O)CCS(=O)(=O)c3ccc(C)cc3)c2C#N)C1,116%,"13 µM [rising, partial curve]",–
Cc1ccccc1-n1ncc(C(C)NC(=O)c2ccco2)c1C (stereo not given),-66.8%,"0.259 µM [falling, full curve]","0.146 µM [falling, full curve]"
CCCOc1ccccc1N1C(=O)CC(N(O)c2ccccc2)C1=O (stereo not given),–,–,"5.17 µM [rising, full curve, poor fit]"
O=C1CS/C(=C\[N+](=O)[O-])N1c1ccccc1,-4.46%,"2.06 µM [rising, partial curve]","25.9 µM [rising, single point]"
O=S(=O)(O)c1cc2oc(-c3ccccc3)nc2c2ccccc12,20.3%,–,"14.6 µM [rising, partial curve, poor fit]"
CCOc1ccc(CCNC(=O)CSc2nnnn2C)cc1OCC,16.6%,–,"0.0291 µM [falling, full curve, poor fit]"
Cc1nc(C(=O)O)cc2c1[nH]c1ccccc12,–,–,"20.6 µM [rising, partial curve]"
CC(C)CC1NC(=O)N(CCCCN2C(=O)c3ccccc3C2=O)C1=O (stereo not given),10.8%,–,"0.731 µM [falling, full curve]"
CCC(=O)Nc1cc2c(cc1C(=O)CC)OCCO2,21.8%,–,"6.51 µM [rising, single point]"
CCCCn1c(CN2C(=O)c3ccccc3C2=O)nc2ccccc2c1=O,6.33%,–,–

Structure (SMILES),cell number change,AC50 [1],AC50 [2]
CCOC(=O)CCn1cnc2ccc([N+](=O)[O-])cc2c1=O,-2.71%,–,–
COC(=O)CNC(=O)CSc1nc2c(sc(=S)n2-c2ccccc2)c(=O)[nH]1,9.01%,–,"0.58 µM [falling, single point]"
CC(C)(C)NS(=O)(=O)c1ccc(NC(=S)NC(=O)C2CC2)cc1,-11.4%,–,"16.4 µM [falling, single point]"
O=C(O)c1cccc(NC(=S)NC(=O)c2ccncc2)c1,-5.28%,–,–
CNc1nn(-c2cccc(Cl)c2)nc1N,148%,"11.6 µM [rising, partial curve]","3.26 µM [falling, partial curve]"
O=C(c1ccccc1Cl)N(Cc1ccccc1F)N1C(=O)CCCC1=O,-28.8%,–,"29.1 µM [falling, partial curve, poor fit]"
COC(=O)c1cc(OC)c(OC)cc1NC(=S)N1CCOCC1,59.7%,"16.4 µM [rising, single point]","29.1 µM [falling, partial curve]"
Cn1c(=O)c2c(nc(N3CCNCC3)n2Cc2cccc3ccccc23)n(C)c1=O,-16.5%,–,"7.31 µM [falling, partial curve]"
CCCc1nc(NC(C)=O)c(C#N)c(-c2ccco2)c1CC,-11.1%,–,–
C=CCNC(=O)/C=C/c1c(F)cccc1Cl,3.85%,–,"16.4 µM [rising, single point]"
Cc1ccc(C)c(N2CCN(C(=O)CCS(=O)(=O)c3ccc4c(c3)CCN4C(=O)C3CC3)CC2)c1,–,–,"29.1 µM [falling, single point]"
CCCCc1nc2cc(C(=O)N3CCCCC3CCO)ccc2o1 (stereo not given),8.3%,–,"25.9 µM [rising, single point]"
Cc1ccn(CCSCC(=O)O)n1,4.08%,–,"29.1 µM [rising, single point]"
COc1ccccc1N=NC1=C(O)CC(C)(C)CC1=O,-10.6%,–,"2.59 µM [rising, partial curve]"
O=C(Nc1cccc(Cl)c1)C1CCCN(C2=NS(=O)(=O)c3ccccc32)C1 (stereo not given),25%,"0.164 µM [rising, full curve, poor fit]",–
CCCCCCN1CC(=O)N2Cc3[nH]c4ccccc4c3C[C@H]2C1=O,-32.4%,"14.6 µM [falling, single point]",–
CC(C)(O)c1[nH]c2ccc(C#N)cc2c1C(C)(C)O,40.1%,"25.9 µM [rising, partial curve, poor fit]",–
Cc1csc(NC(=O)c2cccs2)n1,-13.5%,–,"3.26 µM [falling, full curve, poor fit]"
CCCS(=O)(=O)N1CCN(Cc2c[nH]c3ccccc23)CC1,-10.9%,–,–
Cc1ccc(NCc2nnc(SCC(=O)Nc3ncc(C)s3)n2Cc2ccco2)c(C)c1,-69.5%,"29.1 µM [falling, single point]","1.64 µM [falling, partial curve]"
O=C(NC1CCCCC1)C(c1c(F)cccc1Cl)N(C(=O)c1csnn1)C1CC1 (stereo not given),-8.06%,–,"18.4 µM [falling, partial curve, poor fit]"

# One compound at a time, from the list above:
# CCOC(=O)CCn1cnc2ccc([N+](=O)[O-])cc2c1=O in the list: cell number change: -2.71%
# CNc1nn(-c2cccc(Cl)c2)nc1N in the list: cell number change: 148%; AC50 [1]: 11.6 µM [rising, partial curve]; AC50 [2]: 3.26 µM [falling, partial curve]

# Following part:

Structure (SMILES),cell number change,AC50 [1],AC50 [2]
CCOc1ccc2c(c1)[nH]c(=S)n2C,-4.61%,–,"0.092 µM [falling, full curve, poor fit]"
COCc1cc(=O)[nH]c(Nc2nc(C)c3ccccc3n2)n1,11.9%,"1.16 µM [rising, full curve]","2.06 µM [rising, partial curve]"
CCOCC(=O)N1CCCC(C(=O)OCC)C1 (stereo not given),–,–,"2.06 µM [falling, partial curve]"
O=C(Nc1ccccc1C(=O)N1CCOCC1)C1CCCO1 (stereo not given),-17.8%,–,"29.1 µM [falling, single point]"
COC(=O)c1cc(NS(=O)(=O)c2ccc(N3CCOCC3)c([N+](=O)[O-])c2)cc(C(=O)OC)c1,-28.9%,–,"32.6 µM [rising, single point]"
COc1cccc(CN2CC(C(=O)N3CCCO3)CCC2=O)c1 (stereo not given),14.6%,–,–
CSc1ccc(CCNC(=O)c2ccc(CS(=O)Cc3ccc(Cl)cc3)o2)cc1 (stereo not given),–,–,"11.6 µM [falling, partial curve, poor fit]"
COc1cc(C(C#N)N2CCC(c3ccccc3)=N2)ccc1O (stereo not given),–,–,"29.1 µM [rising, single point]"
COc1ccc(S(=O)(=O)N2CCCC(C(=O)NCc3cccnc3)C2)cc1 (stereo not given),22.6%,–,–
CC(=O)Nc1nnc(SCC(=O)N2CCCc3ccccc32)s1,33.8%,"29.1 µM [rising, single point]",–
Cc1oc(/C=N/NC(=O)CN(c2ccccc2Cl)S(C)(=O)=O)cc1Br,–,–,"0.146 µM [falling, full curve, poor fit]"
COc1cccc(-c2nc(=S)c3c(n2Cc2ccco2)CCCC3)c1,-7.82%,–,–
O=C1CCCCCC1C1(O)C(=O)Nc2ccccc21 (stereo not given),-10.2%,–,"0.651 µM [falling, full curve, poor fit]"
COC(=O)c1nc(NC(=O)c2cc(OC)c(OC)c(OC)c2)n[nH]1,16.7%,–,–
N#Cc1c(C(F)(F)F)cc(-c2cccs2)nc1SCc1cccnc1,-34.5%,"13 µM [falling, partial curve]","6.51 µM [falling, full curve, poor fit]"
Cc1ccc(N(C)S(=O)(=O)c2ccc(-c3ccc(=O)[nH]n3)s2)cc1C,0.295%,–,"6.51 µM [rising, partial curve, poor fit]"
O=C(NCCn1cc(SCc2ccccc2)c2ccccc21)c1ccccc1F,-24.4%,–,"1.16 µM [falling, single point]"
Cc1nc2ccc(NS(=O)(=O)c3ccc(Br)cc3)cc2s1,-30.3%,"29.1 µM [falling, single point]","4.11 µM [falling, full curve, poor fit]"
Clc1ccc2c(c1)nc1n2CCCC1,-0.685%,–,"16.4 µM [rising, single point]"
CCC1(O)CC(C(=O)OC)=NN1C(=O)c1ccccc1 (stereo not given),–,"5.8 µM [rising, single point]","6.51 µM [falling, single point]"
